For three molecules, binding results are on record in paper PMC10238178.

No constants are given. Whether binding was seen depends on the method and setting. Binding seen in cells or lysates may run through a third protein. A yes stands for co-enrichment or nearness to the bait. Other partners may have been found.

The chains are these.
B1: VCPIP1 (endogenous, HEK293T) (enzyme, UniProt Q96JH7 1-1222)
chain: MSQPPPPPPPLPPPPPPPEAPQTPSSLASAAASGGLLKRRDRRILSGSCPDPKCQARLFFPASGSVSIECTECGQRHEQQQLLGVEEVTDPDVVLHNLLRNALLGVTGAPKKNTELVKVMGLSNYHCKLLSPILARYGMDKQTGRAKLLRDMNQGELFDCALLGDRAFLIEPEHVNTVGYGKDRSGSLLYLHDTLEDIKRANKSQECLIPVHVDGDGHCLVHAVSRALVGRELFWHALRENLKQHFQQHLARYQALFHDFIDAAEWEDIINECDPLFVPPEGVPLGLRNIHIFGLANVLHRPIILLDSLSGMRSSGDYSATFLPGLIPAEKCTGKDGHLNKPICIAWSSSGRNHYIPLVGIKGAALPKLPMNLLPKAWGVPQDLIKKYIKLEEDGGCVIGGDRSLQDKYLLRLVAAMEEVFMDKHGIHPSLVADVHQYFYRRTGVIGVQPEEVTAAAKKAVMDNRLHKCLLCGALSELHVPPEWLAPGGKLYNLAKSTHGQLRTDKNYSFPLNNLVCSYDSVKDVLVPDYGMSNLTACNWCHGTSVRKVRGDGSIVYLDGDRTNSRSTGGKCGCGFKHFWDGKEYDNLPEAFPITLEWGGRVVRETVYWFQYESDSSLNSNVYDVAMKLVTKHFPGEFGSEILVQKVVHTILHQTAKKNPDDYTPVNIDGAHAQRVGDVQGQESESQLPTKIILTGQKTKTLHKEELNMSKTERTIQQNITEQASVMQKRKTEKLKQEQKGQPRTVSPSTIRDGPSSAPATPTKAPYSPTTSKEKKIRITTNDGRQSMVTLKSSTTFFELQESIAREFNIPPYLQCIRYGFPPKELMPPQAGMEKEPVPLQHGDRITIEILKSKAEGGQSAAAHSAHTVKQEDIAVTGKLSSKELQEQAEKEMYSLCLLATLMGEDVWSYAKGLPHMFQQGGVFYSIMKKTMGMADGKHCTFPHLPGKTFVYNASEDRLELCVDAAGHFPIGPDVEDLVKEAVSQVRAEATTRSRESSPSHGLLKLGSGGVVKKKSEQLHNVTAFQGKGHSLGTASGNPHLDPRARETSVVRKHNTGTDFSNSSTKTEPSVFTASSSNSELIRIAPGVVTMRDGRQLDPDLVEAQRKKLQEMVSSIQASMDRHLRDQSTEQSPSDLPQRKTEVVSSSAKSGSLQTGLPESFPLTGGTENLNTETTDGCVADALGAAFATRSKAQRGNSVEELEEMDSQDAEMTNTTEPMDHS
B2: USP47 (endogenous, HEK293T) (enzyme, UniProt Q96K76 1-1375)
chain: MVPGEENQLVPKEDVFWRCRQNIFDEMKKKFLQIENAAEEPRVLCIIQDTTNSKTVNERITLNLPASTPVRKLFEDVANKVGYINGTFDLVWGNGINTADMAPLDHTSDKSLLDANFEPGKKNFLHLTDKDGEQPQILLEDSSAGEDSVHDRFIGPLPREGSGGSTSDYVSQSYSYSSILNKSETGYVGLVNQAMTCYLNSLLQTLFMTPEFRNALYKWEFEESEEDPVTSIPYQLQRLFVLLQTSKKRAIETTDVTRSFGWDSSEAWQQHDVQELCRVMFDALEQKWKQTEQADLINELYQGKLKDYVRCLECGYEGWRIDTYLDIPLVIRPYGSSQAFASVEEALHAFIQPEILDGPNQYFCERCKKKCDARKGLRFLHFPYLLTLQLKRFDFDYTTMHRIKLNDRMTFPEELDMSTFIDVEDEKSPQTESCTDSGAENEGSCHSDQMSNDFSNDDGVDEGICLETNSGTEKISKSGLEKNSLIYELFSVMVHSGSAAGGHYYACIKSFSDEQWYSFNDQHVSRITQEDIKKTHGGSSGSRGYYSSAFASSTNAYMLIYRLKDPARNAKFLEVDEYPEHIKNLVQKERELEEQEKRQREIERNTCKIKLFCLHPTKQVMMENKLEVHKDKTLKEAVEMAYKMMDLEEVIPLDCCRLVKYDEFHDYLERSYEGEEDTPMGLLLGGVKSTYMFDLLLETRKPDQVFQSYKPGEVMVKVHVVDLKAESVAAPITVRAYLNQTVTEFKQLISKAIHLPAETMRIVLERCYNDLRLLSVSSKTLKAEGFFRSNKVFVESSETLDYQMAFADSHLWKLLDRHANTIRLFVLLPEQSPVSYSKRTAYQKAGGDSGNVDDDCERVKGPVGSLKSVEAILEESTEKLKSLSLQQQQDGDNGDSSKSTETSDFENIESPLNERDSSASVDNRELEQHIQTSDPENFQSEERSDSDVNNDRSTSSVDSDILSSSHSSDTLCNADNAQIPLANGLDSHSITSSRRTKANEGKKETWDTAEEDSGTDSEYDESGKSRGEMQYMYFKAEPYAADEGSGEGHKWLMVHVDKRITLAAFKQHLEPFVGVLSSHFKVFRVYASNQEFESVRLNETLSSFSDDNKITIRLGRALKKGEYRVKVYQLLVNEQEPCKFLLDAVFAKGMTVRQSKEELIPQLREQCGLELSIDRFRLRKKTWKNPGTVFLDYHIYEEDINISSNWEVFLEVLDGVEKMKSMSQLAVLSRRWKPSEMKLDPFQEVVLESSSVDELREKLSEISGIPLDDIEFAKGRGTFPCDISVLDIHQDLDWNPKVSTLNVWPLYICDDGAVIFYRDKTEELMELTDEQRNELMKKESSRLQKTGHRVTYSPRKEKALKIYLDGAPNKDLTQD
B3: USP15 (endogenous, HEK293T) (enzyme, UniProt Q9Y4E8 1-981)
chain: MAEGGAADLDTQRSDIATLLKTSLRKGDTWYLVDSRWFKQWKKYVGFDSWDKYQMGDQNVYPGPIDNSGLLKDGDAQSLKEHLIDELDYILLPTEGWNKLVSWYTLMEGQEPIARKVVEQGMFVKHCKVEVYLTELKLCENGNMNNVVTRRFSKADTIDTIEKEIRKIFSIPDEKETRLWNKYMSNTFEPLNKPDSTIQDAGLYQGQVLVIEQKNEDGTWPRGPSTPKSPGASNFSTLPKISPSSLSNNYNNMNNRNVKNSNYCLPSYTAYKNYDYSEPGRNNEQPGLCGLSNLGNTCFMNSAIQCLSNTPPLTEYFLNDKYQEELNFDNPLGMRGEIAKSYAELIKQMWSGKFSYVTPRAFKTQVGRFAPQFSGYQQQDCQELLAFLLDGLHEDLNRIRKKPYIQLKDADGRPDKVVAEEAWENHLKRNDSIIVDIFHGLFKSTLVCPECAKISVTFDPFCYLTLPLPMKKERTLEVYLVRMDPLTKPMQYKVVVPKIGNILDLCTALSALSGIPADKMIVTDIYNHRFHRIFAMDENLSSIMERDDIYVFEININRTEDTEHVIIPVCLREKFRHSSYTHHTGSSLFGQPFLMAVPRNNTEDKLYNLLLLRMCRYVKISTETEETEGSLHCCKDQNINGNGPNGIHEEGSPSEMETDEPDDESSQDQELPSENENSQSEDSVGGDNDSENGLCTEDTCKGQLTGHKKRLFTFQFNNLGNTDINYIKDDTRHIRFDDRQLRLDERSFLALDWDPDLKKRYFDENAAEDFEKHESVEYKPPKKPFVKLKDCIELFTTKEKLGAEDPWYCPNCKEHQQATKKLDLWSLPPVLVVHLKRFSYSRYMRDKLDTLVDFPINDLDMSEFLINPNAGPCRYNLIAVSNHYGGMGGGHYTAFAKNKDDGKWYYFDDSSVSTASEDQIVSKAAYVLFYQRQDTFSGTGFFPLDRETKGASAATGIPLESDEDSNDNDNDIENENCMHTN

The target in this test is Flag-β-TrCP. Briefly: affinity purification with mass spectrometry; Flag-β-TrCP or empty vector transfected into HEK293T; MG132 20 µM 6 h; lysate on anti-Flag M2 affinity gel at 4 °C overnight; silver-stained gel bands to LC-MS/MS.
For B1, the binding result is given as “binds”. The entry for B2 is “binds”; for B3 it is “binds”.
